From the supplement of paper PMC10849652
Some of the results follow.

The chains behind the UniProt entries cited, without tags or fusion partners. Where a name states a change or a piece, a line headed by the entry shows the natural chain unless it says otherwise.
UniProt Q15545, whole entry, looked up: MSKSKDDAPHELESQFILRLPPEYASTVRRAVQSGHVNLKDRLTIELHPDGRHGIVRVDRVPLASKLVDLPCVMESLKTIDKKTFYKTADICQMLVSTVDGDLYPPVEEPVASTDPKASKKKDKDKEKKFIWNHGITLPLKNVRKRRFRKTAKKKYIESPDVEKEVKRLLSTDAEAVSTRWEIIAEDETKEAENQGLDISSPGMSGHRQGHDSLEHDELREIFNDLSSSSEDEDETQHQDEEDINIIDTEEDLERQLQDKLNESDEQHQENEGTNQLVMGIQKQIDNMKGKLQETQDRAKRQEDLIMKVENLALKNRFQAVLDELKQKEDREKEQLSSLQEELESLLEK
UniProt P37837: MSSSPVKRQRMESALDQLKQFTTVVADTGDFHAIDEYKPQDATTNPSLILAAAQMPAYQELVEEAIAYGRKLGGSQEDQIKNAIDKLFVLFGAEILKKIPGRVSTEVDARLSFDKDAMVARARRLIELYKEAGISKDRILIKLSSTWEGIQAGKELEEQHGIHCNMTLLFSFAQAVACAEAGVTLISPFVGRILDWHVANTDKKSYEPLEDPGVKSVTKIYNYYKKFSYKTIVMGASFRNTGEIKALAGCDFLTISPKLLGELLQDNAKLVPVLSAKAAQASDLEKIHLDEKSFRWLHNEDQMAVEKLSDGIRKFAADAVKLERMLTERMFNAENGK
UniProt Q9Y2Z0: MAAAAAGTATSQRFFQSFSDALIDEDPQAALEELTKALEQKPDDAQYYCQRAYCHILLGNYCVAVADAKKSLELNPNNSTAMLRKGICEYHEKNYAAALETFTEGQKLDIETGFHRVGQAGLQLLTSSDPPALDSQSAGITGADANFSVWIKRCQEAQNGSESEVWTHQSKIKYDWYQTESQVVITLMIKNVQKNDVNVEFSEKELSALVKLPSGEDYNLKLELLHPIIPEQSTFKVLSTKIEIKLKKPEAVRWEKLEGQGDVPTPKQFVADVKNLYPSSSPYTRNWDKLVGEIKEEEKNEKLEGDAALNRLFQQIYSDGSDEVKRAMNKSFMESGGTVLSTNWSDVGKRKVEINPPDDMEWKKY
UniProt Q12846: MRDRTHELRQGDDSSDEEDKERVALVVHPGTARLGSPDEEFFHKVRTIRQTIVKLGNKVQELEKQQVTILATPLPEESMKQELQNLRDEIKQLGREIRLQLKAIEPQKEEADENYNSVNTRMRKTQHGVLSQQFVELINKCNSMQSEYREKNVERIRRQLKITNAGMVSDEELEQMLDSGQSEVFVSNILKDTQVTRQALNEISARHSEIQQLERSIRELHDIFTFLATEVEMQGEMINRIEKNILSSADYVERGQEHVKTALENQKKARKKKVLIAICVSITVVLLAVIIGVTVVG
UniProt Q13277: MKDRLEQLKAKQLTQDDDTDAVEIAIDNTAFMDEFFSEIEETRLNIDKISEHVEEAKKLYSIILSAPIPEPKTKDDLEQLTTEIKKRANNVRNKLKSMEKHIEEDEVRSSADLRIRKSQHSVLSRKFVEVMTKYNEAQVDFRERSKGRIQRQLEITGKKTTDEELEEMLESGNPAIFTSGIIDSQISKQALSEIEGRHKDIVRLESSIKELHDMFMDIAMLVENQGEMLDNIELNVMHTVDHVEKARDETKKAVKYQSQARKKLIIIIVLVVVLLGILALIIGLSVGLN
UniProt Q92797: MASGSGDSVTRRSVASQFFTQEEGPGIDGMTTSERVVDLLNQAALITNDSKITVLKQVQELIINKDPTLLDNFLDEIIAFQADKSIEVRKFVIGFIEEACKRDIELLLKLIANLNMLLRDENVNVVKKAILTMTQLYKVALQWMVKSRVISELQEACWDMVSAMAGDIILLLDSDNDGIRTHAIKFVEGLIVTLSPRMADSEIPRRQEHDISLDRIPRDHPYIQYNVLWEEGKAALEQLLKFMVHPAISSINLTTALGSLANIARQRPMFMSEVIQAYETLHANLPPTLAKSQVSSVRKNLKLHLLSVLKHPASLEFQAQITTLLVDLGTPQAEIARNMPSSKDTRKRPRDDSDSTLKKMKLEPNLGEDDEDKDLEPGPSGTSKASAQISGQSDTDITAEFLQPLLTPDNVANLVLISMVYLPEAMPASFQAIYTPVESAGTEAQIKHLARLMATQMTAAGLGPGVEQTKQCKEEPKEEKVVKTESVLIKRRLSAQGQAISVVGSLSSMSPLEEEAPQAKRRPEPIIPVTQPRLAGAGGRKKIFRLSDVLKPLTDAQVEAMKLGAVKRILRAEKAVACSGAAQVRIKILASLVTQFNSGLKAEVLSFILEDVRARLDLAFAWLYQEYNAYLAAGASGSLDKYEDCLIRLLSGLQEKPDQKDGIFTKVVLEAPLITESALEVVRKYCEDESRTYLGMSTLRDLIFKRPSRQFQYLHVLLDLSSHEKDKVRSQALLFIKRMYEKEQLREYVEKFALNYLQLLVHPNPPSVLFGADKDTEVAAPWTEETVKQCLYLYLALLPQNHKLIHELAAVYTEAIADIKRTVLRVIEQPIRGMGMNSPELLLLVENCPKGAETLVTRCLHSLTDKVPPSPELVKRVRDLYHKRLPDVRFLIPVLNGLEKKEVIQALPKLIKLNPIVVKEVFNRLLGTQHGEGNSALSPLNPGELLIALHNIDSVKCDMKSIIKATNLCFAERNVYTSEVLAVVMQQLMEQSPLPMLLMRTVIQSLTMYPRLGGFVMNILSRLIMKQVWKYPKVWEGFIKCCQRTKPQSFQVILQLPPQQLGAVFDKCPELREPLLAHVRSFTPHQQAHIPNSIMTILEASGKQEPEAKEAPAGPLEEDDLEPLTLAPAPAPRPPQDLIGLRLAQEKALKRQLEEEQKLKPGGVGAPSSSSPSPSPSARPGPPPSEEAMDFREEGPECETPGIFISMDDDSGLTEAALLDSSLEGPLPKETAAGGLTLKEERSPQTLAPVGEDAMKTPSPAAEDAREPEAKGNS
UniProt Q96I99: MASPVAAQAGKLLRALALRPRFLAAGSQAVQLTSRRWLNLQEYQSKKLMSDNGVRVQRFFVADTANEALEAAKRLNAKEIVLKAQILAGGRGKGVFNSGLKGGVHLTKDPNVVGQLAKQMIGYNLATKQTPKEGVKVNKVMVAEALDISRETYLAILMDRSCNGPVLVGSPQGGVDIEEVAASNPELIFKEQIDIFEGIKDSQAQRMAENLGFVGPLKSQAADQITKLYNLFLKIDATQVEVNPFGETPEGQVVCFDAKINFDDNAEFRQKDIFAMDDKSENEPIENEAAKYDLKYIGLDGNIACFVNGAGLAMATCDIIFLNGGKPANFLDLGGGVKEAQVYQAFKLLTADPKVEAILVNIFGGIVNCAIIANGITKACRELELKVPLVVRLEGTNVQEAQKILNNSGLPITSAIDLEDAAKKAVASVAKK
UniProt O94901, whole entry, looked up: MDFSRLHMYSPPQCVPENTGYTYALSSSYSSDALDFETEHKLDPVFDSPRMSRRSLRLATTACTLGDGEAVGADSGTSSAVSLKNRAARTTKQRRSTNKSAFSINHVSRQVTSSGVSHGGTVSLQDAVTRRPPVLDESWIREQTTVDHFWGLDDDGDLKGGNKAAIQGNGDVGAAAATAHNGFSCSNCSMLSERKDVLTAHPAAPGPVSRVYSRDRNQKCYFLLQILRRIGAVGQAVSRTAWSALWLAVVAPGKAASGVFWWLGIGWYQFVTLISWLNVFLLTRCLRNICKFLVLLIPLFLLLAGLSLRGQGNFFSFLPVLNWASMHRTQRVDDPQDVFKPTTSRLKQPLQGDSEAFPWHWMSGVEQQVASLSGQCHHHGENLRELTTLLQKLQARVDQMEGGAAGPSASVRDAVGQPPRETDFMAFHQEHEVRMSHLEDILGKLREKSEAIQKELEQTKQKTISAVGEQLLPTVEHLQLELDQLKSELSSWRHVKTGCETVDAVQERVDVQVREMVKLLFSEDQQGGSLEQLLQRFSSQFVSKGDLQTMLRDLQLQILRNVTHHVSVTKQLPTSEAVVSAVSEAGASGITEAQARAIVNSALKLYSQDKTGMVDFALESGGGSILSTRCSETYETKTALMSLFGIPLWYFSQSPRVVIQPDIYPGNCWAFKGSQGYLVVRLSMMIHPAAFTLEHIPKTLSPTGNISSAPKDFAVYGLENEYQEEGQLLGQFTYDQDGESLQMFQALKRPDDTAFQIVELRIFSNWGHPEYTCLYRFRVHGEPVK
UniProt Q15527: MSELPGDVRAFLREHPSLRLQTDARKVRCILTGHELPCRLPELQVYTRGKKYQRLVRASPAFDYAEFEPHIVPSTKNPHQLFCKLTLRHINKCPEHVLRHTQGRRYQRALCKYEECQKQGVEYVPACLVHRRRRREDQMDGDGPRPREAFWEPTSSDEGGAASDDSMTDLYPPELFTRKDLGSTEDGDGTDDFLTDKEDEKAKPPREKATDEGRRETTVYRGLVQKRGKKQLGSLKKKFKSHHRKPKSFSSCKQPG
UniProt P55854, whole entry, looked up: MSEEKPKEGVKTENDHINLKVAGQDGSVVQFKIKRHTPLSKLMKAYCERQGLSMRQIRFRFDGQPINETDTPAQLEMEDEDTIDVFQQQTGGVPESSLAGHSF
UniProt Q17R31: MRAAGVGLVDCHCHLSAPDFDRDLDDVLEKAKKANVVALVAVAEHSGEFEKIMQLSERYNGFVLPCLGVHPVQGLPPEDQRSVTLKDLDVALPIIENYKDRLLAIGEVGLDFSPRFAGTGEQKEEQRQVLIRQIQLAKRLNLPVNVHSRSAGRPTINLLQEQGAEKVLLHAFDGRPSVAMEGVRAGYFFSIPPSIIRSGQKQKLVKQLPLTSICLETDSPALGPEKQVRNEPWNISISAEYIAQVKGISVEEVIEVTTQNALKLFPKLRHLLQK
UniProt Q4KMP7: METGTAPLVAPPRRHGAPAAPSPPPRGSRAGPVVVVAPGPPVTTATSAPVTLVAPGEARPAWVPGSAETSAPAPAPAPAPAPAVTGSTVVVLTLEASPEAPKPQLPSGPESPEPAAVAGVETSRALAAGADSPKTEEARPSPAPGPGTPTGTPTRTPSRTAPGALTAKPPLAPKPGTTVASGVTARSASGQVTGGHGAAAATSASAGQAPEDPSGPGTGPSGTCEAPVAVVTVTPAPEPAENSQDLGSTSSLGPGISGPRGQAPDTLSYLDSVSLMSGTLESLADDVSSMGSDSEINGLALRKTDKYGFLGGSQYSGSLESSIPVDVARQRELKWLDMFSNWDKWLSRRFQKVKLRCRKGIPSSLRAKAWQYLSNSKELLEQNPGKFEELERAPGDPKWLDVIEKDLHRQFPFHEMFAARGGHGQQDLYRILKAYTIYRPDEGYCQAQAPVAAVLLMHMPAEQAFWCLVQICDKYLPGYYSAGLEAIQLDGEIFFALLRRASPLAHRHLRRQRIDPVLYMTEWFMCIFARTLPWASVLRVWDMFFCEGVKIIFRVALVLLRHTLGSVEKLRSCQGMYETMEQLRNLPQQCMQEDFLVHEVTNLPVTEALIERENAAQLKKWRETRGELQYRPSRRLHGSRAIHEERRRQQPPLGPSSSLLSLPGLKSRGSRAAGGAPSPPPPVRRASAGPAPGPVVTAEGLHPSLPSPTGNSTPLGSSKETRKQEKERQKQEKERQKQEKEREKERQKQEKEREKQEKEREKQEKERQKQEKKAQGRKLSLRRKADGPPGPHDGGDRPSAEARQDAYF
UniProt Q7L7X3: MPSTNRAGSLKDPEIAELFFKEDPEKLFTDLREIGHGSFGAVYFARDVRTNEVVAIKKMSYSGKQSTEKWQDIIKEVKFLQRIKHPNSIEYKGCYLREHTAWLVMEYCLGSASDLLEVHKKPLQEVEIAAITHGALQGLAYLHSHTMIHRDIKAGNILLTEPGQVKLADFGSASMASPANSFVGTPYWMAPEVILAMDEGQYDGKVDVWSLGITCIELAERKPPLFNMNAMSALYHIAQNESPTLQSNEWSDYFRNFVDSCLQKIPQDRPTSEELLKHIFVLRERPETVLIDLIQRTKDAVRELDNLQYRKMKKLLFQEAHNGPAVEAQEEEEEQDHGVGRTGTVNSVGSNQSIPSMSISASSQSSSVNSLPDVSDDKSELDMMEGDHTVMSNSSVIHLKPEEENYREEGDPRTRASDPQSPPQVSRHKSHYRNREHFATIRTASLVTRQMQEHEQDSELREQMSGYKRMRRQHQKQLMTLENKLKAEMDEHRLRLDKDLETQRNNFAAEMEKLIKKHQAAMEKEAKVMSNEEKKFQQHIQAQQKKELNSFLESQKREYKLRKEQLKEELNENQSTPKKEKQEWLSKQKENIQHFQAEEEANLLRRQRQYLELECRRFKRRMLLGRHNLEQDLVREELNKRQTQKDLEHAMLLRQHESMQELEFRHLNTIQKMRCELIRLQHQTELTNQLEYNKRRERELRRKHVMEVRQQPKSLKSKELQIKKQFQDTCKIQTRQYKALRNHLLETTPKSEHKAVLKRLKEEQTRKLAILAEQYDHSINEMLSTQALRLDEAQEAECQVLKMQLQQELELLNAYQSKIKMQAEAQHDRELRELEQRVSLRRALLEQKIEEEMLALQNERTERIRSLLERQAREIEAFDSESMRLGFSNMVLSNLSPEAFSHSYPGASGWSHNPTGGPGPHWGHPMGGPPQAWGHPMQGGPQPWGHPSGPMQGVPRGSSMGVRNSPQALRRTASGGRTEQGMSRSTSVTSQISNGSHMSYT

Experiments:
Test in all cases: log2 fold change, soluble protein after heating vs DMSO (PISA); higher = thermal stabilisation; K562 cells, 10 uM, 30 min; active = over 0.2 and 3.5 SD of the protein, either way, in both replicates (recomputed)
[1] = compound: NC(=O)Nc1cc(-c2cccc(F)c2)sc1C(=O)N[C@H]1CCCNC1
Summary of the method: (§1)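 Aliquots of K562 cells (2×10^6 cells/mL) treated with 10 μM compound for 30 min were heated for 3 min over 48°C-58°C. After pooling and extraction in PBS with 0.5% NP-40 at 4°C, soluble protein from a 21,000xg, 90 min spin was quantified by TMTpro 16plex LC-MS/MS with channel sums equalised. Thermal stability is expressed against control samples, from duplicates, as a log2 fold change.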

[2] = compound: NC(=O)c1cnc(N[C@@H]2CCCC[C@@H]2N)nc1Nc1cccc(-n2nccn2)c1
Summary of the method: as §1

[3] = compound: NC1(c2ccc(-c3nc4ccn5c(=O)[nH]nc5c4cc3-c3ccccc3)cc2)CCC1
Summary of the method: as §1

[4] = compound: NCC(=O)Nc1ccc(-n2nc(C(F)(F)F)cc2-c2ccc3c(ccc4ccccc43)c2)cc1
Summary of the method: as §1

entinostat = compound: Nc1ccccc1NC(=O)c1ccc(CNC(=O)OCc2cccnc2)cc1 [entinostat]
Summary of the method: as §1

vorinostat = compound: O=C(CCCCCCC(=O)Nc1ccccc1)NO [vorinostat]
Summary of the method: as §1

citarinostat = compound: O=C(CCCCCCNC(=O)c1cnc(N(c2ccccc2)c2ccccc2Cl)nc1)NO [citarinostat]
Summary of the method: as §1

silmitasertib = compound: O=C(O)c1ccc2c(c1)nc(Nc1cccc(Cl)c1)c1ccncc12 [silmitasertib]
Summary of the method: as §1

[5] = compound: O=C1NC(=O)C(c2cnc3ccccn23)=C1c1cn2c3c(cc(F)cc13)CN(C(=O)N1CCCCC1)CC2
Summary of the method: as §1

[6] = compound: c1cc(OCCN2CCCCC2)cc(-c2n[nH]c3ccc(-c4nnc[nH]4)cc23)c1
Summary of the method: as §1

TAF7 (UniProt Q15545)
log2 fold change [1]: inactive: -0.02
log2 fold change [2]: inactive: -0.049
log2 fold change [3]: inactive: 0.004
log2 fold change [4]: inactive: 0.062
log2 fold change (entinostat): inactive: 0.003
log2 fold change (vorinostat): inactive: -0.023
log2 fold change (citarinostat): inactive: -0.003
log2 fold change (silmitasertib): inactive: -0.037
log2 fold change [5]: inactive: -0.081
log2 fold change [6]: inactive: -0.052

TALDO1 (UniProt P37837)
log2 fold change [1]: inactive: 0
log2 fold change [2]: inactive: -0.042
log2 fold change [3]: inactive: -0.077
log2 fold change [4]: inactive: 0.002
log2 fold change (entinostat): inactive: 0.022
log2 fold change (vorinostat): inactive: 0.04
log2 fold change (citarinostat): inactive: -0.01
log2 fold change (silmitasertib): inactive: -0.078
log2 fold change [5]: inactive: -0.057
log2 fold change [6]: inactive: 0.02

SUGT1 (UniProt Q9Y2Z0)
log2 fold change [1]: inactive: -0.02
log2 fold change [2]: inactive: -0.039
log2 fold change [3]: inactive: -0.093
log2 fold change [4]: inactive: -0.009
log2 fold change (entinostat): inactive: 0.009
log2 fold change (vorinostat): inactive: 0.021
log2 fold change (citarinostat): inactive: 0.034
log2 fold change (silmitasertib): inactive: 0.017
log2 fold change [5]: inactive: -0.036
log2 fold change [6]: inactive: 0.008

STX4 (UniProt Q12846)
log2 fold change [1]: inactive: -0.13
log2 fold change [2]: inactive: 0.07
log2 fold change [3]: inactive: 0.029
log2 fold change [4]: inactive: -0.015
log2 fold change (entinostat): inactive: -0.005
log2 fold change (vorinostat): inactive: -0.004
log2 fold change (citarinostat): inactive: 0.022
log2 fold change (silmitasertib): inactive: 0.014
log2 fold change [5]: inactive: -0.063
log2 fold change [6]: inactive: 0.048

STX3 (UniProt Q13277)
log2 fold change [1]: inactive: -0.022
log2 fold change [2]: inactive: -0.021
log2 fold change [3]: inactive: -0.063
log2 fold change [4]: inactive: 0.111
log2 fold change (entinostat): inactive: 0.008
log2 fold change (vorinostat): inactive: -0.024
log2 fold change (citarinostat): inactive: 0.171
log2 fold change (silmitasertib): inactive: 0.023
log2 fold change [5]: inactive: -0.035
log2 fold change [6]: inactive: 0.101

SYMPK (UniProt Q92797)
log2 fold change [1]: inactive: -0.018
log2 fold change [2]: inactive: 0.012
log2 fold change [3]: inactive: -0.287
log2 fold change [4]: inactive: -0.08
log2 fold change (entinostat): inactive: 0.025
log2 fold change (vorinostat): inactive: 0.11
log2 fold change (citarinostat): inactive: 0.051
log2 fold change (silmitasertib): inactive: 0.167
log2 fold change [5]: inactive: 0.033
log2 fold change [6]: inactive: -0.037

SUCLG2 (UniProt Q96I99)
log2 fold change [1]: inactive: 0.004
log2 fold change [2]: inactive: -0.045
log2 fold change [3]: inactive: -0.053
log2 fold change [4]: inactive: -0.028
log2 fold change (entinostat): inactive: -0.005
log2 fold change (vorinostat): inactive: 0.036
log2 fold change (citarinostat): inactive: 0.042
log2 fold change (silmitasertib): inactive: -0.031
log2 fold change [5]: inactive: -0.026
log2 fold change [6]: inactive: -0.032

SUN1 isoform 9 (UniProt O94901)
log2 fold change [1]: inactive: -0.035
log2 fold change [2]: inactive: -0.073
log2 fold change [3]: inactive: -0.028
log2 fold change [4]: inactive: 0.102
log2 fold change (entinostat): inactive: 0.18
log2 fold change (vorinostat): inactive: 0.06
log2 fold change (citarinostat): inactive: -0.115
log2 fold change (silmitasertib): inactive: -0.009
log2 fold change [5]: inactive: -0.226
log2 fold change [6]: inactive: 0.075

TAB1 (UniProt Q15750)
log2 fold change [1]: inactive: 0.017
log2 fold change [2]: inactive: -0.001
log2 fold change [3]: inactive: -0.153
log2 fold change [4]: inactive: -0.116
log2 fold change (entinostat): inactive: 0.124
log2 fold change (vorinostat): inactive: 0.054
log2 fold change (citarinostat): inactive: 0.042
log2 fold change (silmitasertib): inactive: 0.039
log2 fold change [5]: inactive: 0.004
log2 fold change [6]: inactive: -0.046

SURF2 (UniProt Q15527)
log2 fold change [1]: inactive: 0.019
log2 fold change [2]: inactive: 0.076
log2 fold change [3]: inactive: 0.033
log2 fold change [4]: inactive: 0.088
log2 fold change (entinostat): inactive: -0.012
log2 fold change (vorinostat): inactive: -0.009
log2 fold change (citarinostat): inactive: 0.06
log2 fold change (silmitasertib): inactive: 0.079
log2 fold change [5]: inactive: -0.004
log2 fold change [6]: inactive: -0.018

SUMO3 isoform 2 (UniProt P55854)
log2 fold change [1]: inactive: 0.014
log2 fold change [2]: inactive: 0.034
log2 fold change [3]: inactive: 0.106
log2 fold change [4]: inactive: 0.021
log2 fold change (entinostat): inactive: -0.115
log2 fold change (vorinostat): inactive: -0.056
log2 fold change (citarinostat): inactive: -0.014
log2 fold change (silmitasertib): inactive: -0.008
log2 fold change [5]: inactive: 0
log2 fold change [6]: inactive: -0.127

TATDN3 isoform 3 (UniProt Q17R31)
log2 fold change [1]: inactive: -0.039
log2 fold change [2]: inactive: 0.014
log2 fold change [3]: inactive: -0.026
log2 fold change [4]: inactive: -0.15
log2 fold change (entinostat): inactive: 0.037
log2 fold change (vorinostat): inactive: -0.017
log2 fold change (citarinostat): inactive: 0.072
log2 fold change (silmitasertib): inactive: 0.004
log2 fold change [5]: inactive: -0.043
log2 fold change [6]: inactive: 0.001

TBC1D10B (UniProt Q4KMP7)
log2 fold change [1]: inactive: -0.141
log2 fold change [2]: inactive: 0.007
log2 fold change [3]: inactive: 0.038
log2 fold change [4]: inactive: -0.027
log2 fold change (entinostat): inactive: 0.017
log2 fold change (vorinostat): inactive: -0.03
log2 fold change (citarinostat): inactive: 0.039
log2 fold change (silmitasertib): inactive: -0.009
log2 fold change [5]: inactive: -0.005
log2 fold change [6]: active: -0.283

SUPT4H1 (UniProt P63272)
log2 fold change [1]: inactive: 0.023
log2 fold change [2]: inactive: -0.085
log2 fold change [3]: inactive: 0.121
log2 fold change [4]: inactive: -0.042
log2 fold change (entinostat): inactive: 0.019
log2 fold change (vorinostat): inactive: -0.025
log2 fold change (citarinostat): inactive: 0.034
log2 fold change (silmitasertib): inactive: -0.156
log2 fold change [5]: inactive: -0.1
log2 fold change [6]: inactive: 0.053

TAOK1 (UniProt Q7L7X3)
log2 fold change [1]: inactive: -0.043
log2 fold change [2]: inactive: -0.04
log2 fold change [3]: inactive: -0.063
log2 fold change [4]: inactive: -0.068
log2 fold change (entinostat): inactive: -0.01
log2 fold change (vorinostat): inactive: 0.048
log2 fold change (citarinostat): inactive: 0
log2 fold change (silmitasertib): inactive: -0.003
log2 fold change [5]: inactive: -0.038
log2 fold change [6]: inactive: -0.194
